In this assay the target is HALO-NEDP1 C163A (UniProt Q96LD8). Nature of the assay: pull-down; recombinant HALO-NEDP1 (CA or DAGC) conjugated to HALO-Link beads, incubated with lysates of HEK 293 WT and NEDP1 KO cells; Western blot; only the target purified. On the technique in general: A western blot detects proteins with antibodies after separation by electrophoresis.

Chains of the proteins cited; added tags and fusions are not shown. Lines headed by an entry give the natural chain unless they say otherwise; changes in a name come on top.
UniProt Q96LD8: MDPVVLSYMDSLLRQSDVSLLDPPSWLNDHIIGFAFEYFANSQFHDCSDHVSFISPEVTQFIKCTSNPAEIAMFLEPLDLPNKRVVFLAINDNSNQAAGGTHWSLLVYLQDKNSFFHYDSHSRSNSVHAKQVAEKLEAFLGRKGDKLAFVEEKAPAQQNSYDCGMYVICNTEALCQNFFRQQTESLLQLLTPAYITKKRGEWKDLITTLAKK
UniProt Q92905: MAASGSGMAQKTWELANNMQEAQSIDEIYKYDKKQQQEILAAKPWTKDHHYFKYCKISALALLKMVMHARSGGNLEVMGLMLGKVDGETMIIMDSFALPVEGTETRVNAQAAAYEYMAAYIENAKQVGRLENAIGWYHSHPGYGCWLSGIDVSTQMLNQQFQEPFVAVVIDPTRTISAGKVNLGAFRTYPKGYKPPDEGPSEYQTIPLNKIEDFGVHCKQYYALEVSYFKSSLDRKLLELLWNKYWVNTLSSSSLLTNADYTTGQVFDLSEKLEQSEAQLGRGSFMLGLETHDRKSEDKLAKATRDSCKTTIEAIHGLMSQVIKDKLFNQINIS
UniProt Q99627: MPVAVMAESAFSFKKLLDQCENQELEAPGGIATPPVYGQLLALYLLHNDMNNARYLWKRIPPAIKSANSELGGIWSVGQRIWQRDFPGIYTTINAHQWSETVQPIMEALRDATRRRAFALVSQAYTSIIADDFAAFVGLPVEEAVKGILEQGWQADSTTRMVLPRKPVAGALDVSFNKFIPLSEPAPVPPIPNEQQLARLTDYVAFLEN

These are yes or no findings as the source states them, for the method shown. Binding seen in cells or lysates may run through a third protein. Some entries that bind do so weakly or less than the wild type.

Turning to CSN5 (from UniProt Q92905 1-334), the binding entry is “binds”. With CSN8 (from UniProt Q99627 1-209) the entry was “binds”.

The values are drawn from PMC6418418.
